# Patent publication US20110142799A1, “MODULATION OF NEURODEGENERATIVE DISEASE BY MODULATING XBP-1 ACTIVITY” (PRESIDENT AND FELLOWS OF HARVARD COLLEGE, priority 2008, published 2011)
# At least one structure is not confirmed: it was looked up by name or label, or the drawing left a doubt.
# Tested on: mutant SOD1 aggregates in NSC34 cells
# Experiment: High molecular weight, detergent insoluble SOD1 aggregates in NSC34 cells by Western blot
# Format: cell-based, human
# Conditions: shXBP-1 and shIRE-1 alpha NSC34 cells expressing SOD1^G85R; 16 h with 10 mM 3-MA or 10 μM wortmannin
# Source text: Stable motoneuron cell lines with reduced levels of XBP-1, IRE1α, Beclin-1 and EDEM were generated using methods previously described (Hetz et al., 2007) by targeting the respective mRNA with shRNA using the lentiviral expression vector pLKO.1 and puromycin selection. As control empty vector or a shRNA against the luciferase gene were employed. Constructs were generated by The Broad Institute (Boston, USA) based on different criteria for shRNA design (see broad.mit.edu/genome_bio/trc/rnai.html). A total of five different constructs for each gene were screened and the most efficient one was selected for further studies. Targeting sequences identified for the mouse XBP-1, IRE1α, Beclin-1 and EDEM mRNA are 5′-[…]-3′,5′-[…]-3′,5′-[…]-3′,5′-[…]-3′,5′-[…]-3′,5′-[…]-3′, 5′-[…]-3′ and 5′-[…]-3′, respectively. […]
# Assays using the transient expression of human SOD1^WT and the mutants SOD1^G93A and SOD1^G85R as EGFP fusion proteins were developed. These constructs were employed to visualize and quantify the formation of intracellular SOD1 inclusions in living cells by fluorescent confocal microscopy. […] SOD1 oligomers were visualized in total cell extracts prepared in RIPA buffer and sonication, and then analyzed by Western blot. […]
compound,measurement,value
COC[C@H]1OC(=O)c2coc3c2[C@@]1(C)C1=C(C3=O)[C@@H]2CCC(=O)[C@@]2(C)C[C@H]1OC(C)=O [Wortmannin],SOD1 aggregation after PI3-kinase / autophagy inhibitor,recovery of mutant SOD1 aggregation in knockdown cells
